Measurements: doi:10.1101/2022.01.13.476189
No constants are given. Whether binding was seen depends on the method and setting. In cells and extracts the contact can be indirect. Binding calls can cover weak binding; strength is not graded here.

Amino acid sequences for entries named in this document (tags omitted). A change or cut given only in a name is not applied to a line headed by its entry.
UniProt P07213: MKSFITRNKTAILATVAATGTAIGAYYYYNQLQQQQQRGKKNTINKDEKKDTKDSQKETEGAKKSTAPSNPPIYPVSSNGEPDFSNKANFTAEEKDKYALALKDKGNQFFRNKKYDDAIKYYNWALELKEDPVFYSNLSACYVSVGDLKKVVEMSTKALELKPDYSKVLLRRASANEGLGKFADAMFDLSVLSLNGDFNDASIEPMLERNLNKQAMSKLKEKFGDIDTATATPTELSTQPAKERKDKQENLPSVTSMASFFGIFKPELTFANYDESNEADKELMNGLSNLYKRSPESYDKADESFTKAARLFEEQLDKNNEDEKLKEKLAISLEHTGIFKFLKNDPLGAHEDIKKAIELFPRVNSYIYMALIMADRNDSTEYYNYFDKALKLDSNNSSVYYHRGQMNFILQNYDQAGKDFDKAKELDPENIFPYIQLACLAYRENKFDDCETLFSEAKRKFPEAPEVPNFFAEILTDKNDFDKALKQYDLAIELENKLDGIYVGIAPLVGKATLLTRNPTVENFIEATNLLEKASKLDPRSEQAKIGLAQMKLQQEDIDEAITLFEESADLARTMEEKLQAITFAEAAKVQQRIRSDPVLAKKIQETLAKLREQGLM
UniProt Q9BXM7: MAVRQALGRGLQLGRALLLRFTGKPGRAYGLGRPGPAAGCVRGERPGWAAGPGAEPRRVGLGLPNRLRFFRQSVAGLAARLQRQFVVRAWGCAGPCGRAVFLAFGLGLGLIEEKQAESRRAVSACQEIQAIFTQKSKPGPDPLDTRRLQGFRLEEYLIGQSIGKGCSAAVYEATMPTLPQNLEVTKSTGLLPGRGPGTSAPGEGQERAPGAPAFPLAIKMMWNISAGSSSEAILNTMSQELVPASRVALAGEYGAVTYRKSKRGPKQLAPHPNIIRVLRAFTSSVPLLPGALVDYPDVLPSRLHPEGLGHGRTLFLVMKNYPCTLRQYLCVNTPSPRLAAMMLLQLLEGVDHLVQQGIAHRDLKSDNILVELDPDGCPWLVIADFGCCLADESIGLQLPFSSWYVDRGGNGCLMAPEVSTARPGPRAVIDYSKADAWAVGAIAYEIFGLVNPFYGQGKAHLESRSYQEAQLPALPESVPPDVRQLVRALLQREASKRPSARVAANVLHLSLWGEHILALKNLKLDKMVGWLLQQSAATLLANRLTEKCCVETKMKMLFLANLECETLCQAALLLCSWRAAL

molecular target: GST-Tom70 (cytosolic domain) (yeast) (UniProt P07213); test: pull-down

binding | Substance
binds | PINK1(35-120)-eGFP, radiolabeled (from UniProt Q9BXM7 35-120) (domain or fragment)
binds | PINK1(1-120)-eGFP, radiolabeled (from UniProt Q9BXM7 1-120) (domain or fragment)
binds | PINK1 (human), radiolabeled (from UniProt Q9BXM7 1-581)
